US20060024691A1, “Novel pathways in the etiology of cancer” (Buck Institute for Age Research, priority 2004, published 2006)
At least one structure is not confirmed: it was looked up by name or label, or the drawing left a doubt.

System: ERK1/ERK2
Assay: MAPK activation: ERK1/ERK2 phosphorylation, Western blot
Format: cell-based, human
Conditions: MCF7 cells, 30 minutes
Protocol: Human breast cancer cell lines MCF7 and T47D were obtained from the American Type Culture Collection (ATCC). MCF7 cells were maintained in Dulbecco's Modification of Eagle's Medium (Cellgro) supplemented with 10% fetal bovine serum (Cellgro), 1% penicillin/streptomycin (Cellgro) and 10 μg/ml insulin (Sigma). T47D cells were maintained in RPMI (Cellgro) supplemented with 10% fetal bovine serum, 1% penicillin/streptomycin and 10 μg/ml insulin. Treatment conditions for both cell lines involved plating ˜1×10^6 cells in normal media onto 10 cm dishes, attachment and growth for 24 hours followed by a change to estrogen-free culture conditions (phenol red-free DME H-16 supplemented with 10% charcoal stripped serum, 1% penicillin/streptomycin and 10 μg/ml insulin) for an additional 24 hours. Cells were then treated as indicated for 30 minutes before extract preparation. Indicated conditions involved 30 minute pretreatments.
For preparation of high-salt nuclear extracts (nucleoplasm), isolated nuclei were resuspended for 20 minutes in ice cold extraction buffer (0.4 M NaCl, 25 mM Tris pH 7.5, 1 mM DTT, 20% glycerol, 10 mM NaFl and min-complete protease inhibitors (Roche)) followed by a 4° C. centrifugation at 16,000×g for 15 minutes.
Membranes were then blocked for 30 minutes in blocking buffer (150 mM NaCl, 20 mM Tris pH 7.5, 0.3% Tween-20 and 4% Nonfat dry milk powerby weight).

SMILES: C[C@]12CC[C@@H]3c4ccc(O)cc4CC[C@H]3[C@@H]1CC[C@@H]2O [estradiol]
- ERK1/ERK2 phosphorylation induced by treatment: no phospho-ERK1/ERK2 detected
